Values quoted from earlier work in patent publication US5182279A, “Benzothienopyrazinedione compounds and their preparation and use” (Novo Nordisk A/S, priority 1990, dated 1993).
For at least one compound, name, drawing or mass did not settle the structure. Some entries repeat one wording, which the source may state once for all of them.

system: glycine site coupled to the NMDA ionophor complex; conditions: literature, in words; cited from earlier work

Row | Compound | activity at the glycine site
1 | NC1(C(=O)O)CCC1 [1-amino-cyclobutanecarboxylate] | weak antagonists
2 | NC1(C(=O)O)CCCC1 [1-amino-cyclopentanecarboxylate] | weak antagonists
3 | O=C(O)c1cc2cc(Cl)ccc2[nH]1 [5-chloro-indole-2-carboxylate] | weak antagonists
4 | O=C(O)c1nc2cc(Cl)c(Cl)cc2nc1O [6,7-dichloro-3-hydroxy-quinoxalin-2-carboxylate] | quite strong antagonists
